US20120121610A1, “THERAPEUTIC AGENT AND ASSAY” (priority 2009, published 2012)
These are yes or no findings as the source states them, for the method shown. In cells and extracts the contact can be indirect. Some entries that bind do so weakly or less than the wild type.

Sequences of proteins named here, by UniProt entry; tags and fusion partners are left off.
UniProt Q9HAW4: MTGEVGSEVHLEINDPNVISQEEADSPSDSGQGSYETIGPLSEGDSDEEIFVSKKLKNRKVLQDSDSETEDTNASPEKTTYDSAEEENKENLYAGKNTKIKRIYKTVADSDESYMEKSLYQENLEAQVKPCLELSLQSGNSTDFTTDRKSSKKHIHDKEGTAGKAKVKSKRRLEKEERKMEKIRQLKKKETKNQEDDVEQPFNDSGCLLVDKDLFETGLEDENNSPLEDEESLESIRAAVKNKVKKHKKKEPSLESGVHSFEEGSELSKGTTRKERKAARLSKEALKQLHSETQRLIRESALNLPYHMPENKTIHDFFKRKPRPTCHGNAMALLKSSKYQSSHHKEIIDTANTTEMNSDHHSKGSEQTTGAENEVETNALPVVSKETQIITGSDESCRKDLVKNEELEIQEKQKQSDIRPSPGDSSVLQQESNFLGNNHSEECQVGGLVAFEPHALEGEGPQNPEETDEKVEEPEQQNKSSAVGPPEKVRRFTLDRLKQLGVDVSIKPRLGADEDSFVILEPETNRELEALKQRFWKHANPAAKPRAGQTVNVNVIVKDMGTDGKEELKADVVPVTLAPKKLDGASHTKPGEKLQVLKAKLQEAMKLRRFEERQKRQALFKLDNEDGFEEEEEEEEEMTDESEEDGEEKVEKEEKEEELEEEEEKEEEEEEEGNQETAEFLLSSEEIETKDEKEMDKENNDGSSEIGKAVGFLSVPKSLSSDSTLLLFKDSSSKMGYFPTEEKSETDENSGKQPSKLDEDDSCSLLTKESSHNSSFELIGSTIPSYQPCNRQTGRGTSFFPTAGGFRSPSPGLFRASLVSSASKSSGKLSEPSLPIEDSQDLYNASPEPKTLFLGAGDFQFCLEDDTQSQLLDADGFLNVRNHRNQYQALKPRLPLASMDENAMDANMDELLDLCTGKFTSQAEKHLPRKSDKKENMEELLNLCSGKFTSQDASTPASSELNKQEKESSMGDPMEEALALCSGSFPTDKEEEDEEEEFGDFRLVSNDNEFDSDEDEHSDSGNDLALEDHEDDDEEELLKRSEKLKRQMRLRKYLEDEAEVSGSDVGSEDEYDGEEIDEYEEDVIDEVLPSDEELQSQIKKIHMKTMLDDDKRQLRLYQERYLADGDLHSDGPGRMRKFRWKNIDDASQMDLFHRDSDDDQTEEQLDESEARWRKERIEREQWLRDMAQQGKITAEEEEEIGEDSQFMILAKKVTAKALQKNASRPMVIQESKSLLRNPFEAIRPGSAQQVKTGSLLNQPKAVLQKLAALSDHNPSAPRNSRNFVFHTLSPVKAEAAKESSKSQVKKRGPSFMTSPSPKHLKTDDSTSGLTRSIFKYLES

Columns and labels:
[1] = target: T1, Chk1 (serine/threonine protein kinase Chk1) (UniProt O14757); test: co-immunoprecipitation with anti-Chk1 antibodies from HeLa cells treated with 2 mM HU for 24 h, immunoblot (FIG. 2 legend)
T1 sequence (looked up): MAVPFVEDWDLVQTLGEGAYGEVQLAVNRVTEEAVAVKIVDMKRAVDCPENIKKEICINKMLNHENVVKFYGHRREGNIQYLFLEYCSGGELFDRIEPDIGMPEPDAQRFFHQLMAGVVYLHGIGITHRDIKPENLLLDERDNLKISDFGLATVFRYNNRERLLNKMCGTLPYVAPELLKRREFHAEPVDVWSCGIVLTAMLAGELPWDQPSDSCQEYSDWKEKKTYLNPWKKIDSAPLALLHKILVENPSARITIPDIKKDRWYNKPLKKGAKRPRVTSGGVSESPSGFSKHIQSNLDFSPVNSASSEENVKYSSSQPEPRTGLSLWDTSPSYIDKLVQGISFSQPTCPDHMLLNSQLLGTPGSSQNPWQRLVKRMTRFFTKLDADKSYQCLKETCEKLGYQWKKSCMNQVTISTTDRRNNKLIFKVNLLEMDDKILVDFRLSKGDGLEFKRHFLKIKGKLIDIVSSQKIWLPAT

[2] = target: T1, Chk1 (serine/threonine protein kinase Chk1); test: co-immunoprecipitation of endogenous proteins with anti-Chk1 antibody from asynchronous or HU-treated HeLa cells, immunoblot
[3] = target: T1, Chk1 (serine/threonine protein kinase Chk1); test: summary of the co-immunoprecipitation data (together with previously published work)

Measured: binding

Claspin (from UniProt Q9HAW4 1-1339)
binds: all assays above
